Measured values reported in article PMC8980056, “RAGE-TXNIP axis drives inflammation in Alzheimer’s by targeting Aβ to mitochondria in microglia” (Cell Death & Disease, 2022).
No constants are given. Whether binding was seen depends on the method and setting. For some assays here: In cells and extracts the contact can be indirect. Some entries that bind do so weakly or less than the wild type.

Legend:
[1] = target: Dynamin-Related Protein 1 (Drp1), endogenous in LPS-primed primary microglia (not stated (endogenous in primary microglia)) (UniProt Q8K1M6); assay: co-IP; co-immunoprecipitation with an anti-Drp1 antibody from LPS-primed primary microglia after 4 h of Aβ dimers addition; western blot of Aβ oligomers, TXNIP and Drp1
[2] = target: Dynamin-Related Protein 1 (Drp1), endogenous in LPS-primed primary microglia (not stated (endogenous in primary microglia)) (UniProt Q8K1M6); assay: native gel or EMSA; as a5, microglia with TXNIP silencing (siTXNIP)

Binder	binding [1]	binding [2]
Thioredoxin-Interacting Protein (TXNIP), endogenous in LPS-primed primary microglia (protein, UniProt Q8BG60 1-397) MVMFKKIKSFEVVFNDPEKVYGSGEKVAGRVIVEVCEVTRVKAVRILACGVAKVLWMQGSQQCKQTLDYLRYEDTLLLEEQPTAGENEMVIMRPGNKYEYKFGFELPQGPLGTSFKGKYGCVDYWVKAFLDRPSQPTQEAKKNFEVMDLVDVNTPDLMAPVSAKKEKKVSCMFIPDGRVSVSARIDRKGFCEGDDISIHADFENTCSRIVVPKAAIVARHTYLANGQTKVFTQKLSSVRGNHIISGTCASWRGKSLRVQKIRPSILGCNILKVEYSLLIYVSVPGSKKVILDLPLVIGSRSGLSSRTSSMASRTSSEMSWIDLNIPDTPEAPPCYMDIIPEDHRLESPTTPLLDDVDDSQDSPIFMYAPEFQFMPPPTYTEVDPCVLNNNNNNNNVQ	binds	–
Dynamin-Related Protein 1 (Drp1), endogenous in LPS-primed primary microglia (natural protein, UniProt Q8K1M6 1-736, looked up, Dynamin-Related Protein 1 (Drp1), endogenous in primary microglia; Precipitated with an anti-Drp1 antibody; seen as tetramer on a native gel; Mouse is only surmised for the primary microglia; see the supplementary methods; source: endogenous, LPS-primed primary microglia lysate) MEALIPVINKLQDVFNTVGADIIQLPQIVVVGTQSSGKSSVLESLVGRDLLPRGTGVVTRRPLILQLVHVSPEDKRKTTGEENGVEAEEWGKFLHTKNKLYTDFDEIRQEIENETERISGNNKGVSPEPIHLKVFSPNVVNLTLVDLPGMTKVPVGDQPKDIELQIRELILRFISNPNSIILAVTAANTDMATSEALKISREVDPDGRRTLAVITKLDLMDAGTDAMDVLMGRVIPVKLGIIGVVNRSQLDINNKKSVTDSIRDEYAFLQKKYPSLANRNGTKYLARTLNRLLMHHIRDCLPELKTRINVLAAQYQSLLNSYGEPVDDKSATLLQLITKFATEYCNTIEGTAKYIETSELCGGARICYIFHETFGRTLESVDPLGGLNTIDILTAIRNATGPRPALFVPEVSFELLVKRQIKRLEEPSLRCVELVHEEMQRIIQHCSNYSTQELLRFPKLHDAIVEVVTCLLRKRLPVTNEMVHNLVAIELAYINTKHPDFADACGLMNNNIEEQRRNRLARELPSAGSRDKSSKVPSALAPASQEPPPAASAEADGKLIQDNRRETKNVPSAGGGIGDGGQEPTTGNWRGMLKTSKAEELLAEEKSKPIPIMPASPQKGHAVNLLDVPVPVARKLSAREQRDCEVIERLIKSYFLIVRKNIQDSVPKAVMHFLVNHVKDTLQSELVGQLYKSSLLDDLLTESEDMAQRRKEAADMLKALQGASQIIAEIRETHLW	–	no binding (condition: with TXNIP silencing (siTXNIP))
